Paper PMC9177983

Experiments:
Mfd (Escherichia coli) = target: T1, Mfd (Escherichia coli) (UniProt P30958); assay: SPR; conditions: 0.5 mM ATPgS, SPR: 30 mM Tris/HCl pH 7.6, 40 mM KCl, 5 mM MgCl2, 0.005% P20, 0.25 mM EDTA, 0.5 mM DTT, 20 C, recombinant protein
T1 sequence (looked up, limits assumed): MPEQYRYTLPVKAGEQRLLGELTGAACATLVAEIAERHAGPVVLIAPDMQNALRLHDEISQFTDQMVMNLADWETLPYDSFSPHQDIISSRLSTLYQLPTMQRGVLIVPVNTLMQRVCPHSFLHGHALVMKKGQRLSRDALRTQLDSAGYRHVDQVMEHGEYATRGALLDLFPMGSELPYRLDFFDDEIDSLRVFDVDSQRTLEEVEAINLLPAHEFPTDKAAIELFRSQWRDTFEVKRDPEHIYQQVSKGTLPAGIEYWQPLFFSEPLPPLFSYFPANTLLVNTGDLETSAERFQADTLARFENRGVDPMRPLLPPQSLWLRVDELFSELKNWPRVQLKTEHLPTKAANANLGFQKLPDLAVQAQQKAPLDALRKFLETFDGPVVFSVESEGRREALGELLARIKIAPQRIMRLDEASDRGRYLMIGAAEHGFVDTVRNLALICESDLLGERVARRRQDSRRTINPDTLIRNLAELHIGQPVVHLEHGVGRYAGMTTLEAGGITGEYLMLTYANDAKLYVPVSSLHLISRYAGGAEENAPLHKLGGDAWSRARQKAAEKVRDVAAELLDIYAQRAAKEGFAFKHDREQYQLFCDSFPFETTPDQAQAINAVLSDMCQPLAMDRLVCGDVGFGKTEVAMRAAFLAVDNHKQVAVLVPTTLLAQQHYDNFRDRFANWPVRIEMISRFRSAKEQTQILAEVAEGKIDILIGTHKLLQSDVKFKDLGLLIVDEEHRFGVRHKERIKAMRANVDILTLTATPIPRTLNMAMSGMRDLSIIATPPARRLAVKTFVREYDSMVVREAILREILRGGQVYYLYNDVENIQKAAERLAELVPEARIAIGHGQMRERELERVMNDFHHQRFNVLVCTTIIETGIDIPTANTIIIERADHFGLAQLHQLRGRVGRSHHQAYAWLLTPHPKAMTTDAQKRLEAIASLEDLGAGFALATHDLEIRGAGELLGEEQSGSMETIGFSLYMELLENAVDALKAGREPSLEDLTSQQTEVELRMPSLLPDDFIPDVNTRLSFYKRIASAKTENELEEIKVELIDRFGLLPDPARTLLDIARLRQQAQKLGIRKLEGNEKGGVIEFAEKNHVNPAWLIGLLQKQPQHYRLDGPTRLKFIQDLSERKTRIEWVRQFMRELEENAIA

[1] = target: T2, Mfd(R953A) (Escherichia coli) (UniProt P30958); assay: SPR; conditions: 0.5 mM ATPgS, 5 mM MgCl2, 0.005% P20, 0.25 mM EDTA, 0.5 mM DTT, 20 C, recombinant protein, label: 5' biotin on AS18
T2 sequence (looked up, limits assumed): T1 sequence (looked up, limits assumed) with R953A

[2] = target: T3, Mfd(E730Q) (Escherichia coli) (UniProt P30958); assay: smFRET; conditions: ATP, high-FRET states extremely rare; smFRET: 20 mM Tris/HCl pH 8.0, 40 mM KCl, 5 mM MgCl2, 1 mM 2-mercaptoethanol; recombinant protein; label: 5' Cy3, 5' biotin and 3' Cy5 on AS18
T3 sequence (looked up, limits assumed): T1 sequence (looked up, limits assumed) with E730Q

[3] = target: T2, Mfd(R953A) (Escherichia coli); assay: smFRET; conditions: 1 mM ATP, no high-FRET (ssDNA compaction), ~0.1 FRET population present; smFRET: 20 mM Tris/HCl pH 8.0, 40 mM KCl, 5 mM MgCl2, 1 mM 2-mercaptoethanol; recombinant protein; label: 5' Cy3, 5' biotin and 3' Cy5 on AS18
[4] = Kd independent of overhang length, label: 3' biotin on S18
[5] = Kd in figure, label: 5' biotin on AS18
[6] = stronger than dT6, approaches wild type, SPR: 30 mM Tris/HCl pH 7.6, 40 mM KCl

Row | Sequence | binding result (Mfd (Escherichia coli); [4]) | binding result (Mfd (Escherichia coli); [5]) | other results
1 | TGGCGACGGCAGCGAGGCTTT / GCCTCGCTGCCGTCGCCA [AS18_dT3:S18_bio] | binds | – | –
2 | TGGCGACGGCAGCGAGGCTTTTTT / GCCTCGCTGCCGTCGCCA [AS18_dT6:S18_bio] | binds | – | –
3 | TGGCGACGGCAGCGAGGCTTTTTTTTT / GCCTCGCTGCCGTCGCCA [AS18_dT9:S18_bio] | binds | – | –
4 | TGGCGACGGCAGCGAGGCTTTTTTTTTTTT / GCCTCGCTGCCGTCGCCA [AS18_dT12:S18_bio] | binds | – | –
5 | TGGCGACGGCAGCGAGGCTTTTTTTTTTTTTTT / GCCTCGCTGCCGTCGCCA [AS18_dT15:S18_bio] | binds | – | –
6 | TTTGCCTCGCTGCCGTCGCCA / TGGCGACGGCAGCGAGGC [dT3_S18:bio_AS18] | – | binds | binding result ([1]; affinity falls with overhang up to dT6, SPR: 30 mM Tris/HCl pH 7.6, 40 mM KCl): binds more weakly
7 | TTTTTTGCCTCGCTGCCGTCGCCA / TGGCGACGGCAGCGAGGC [dT6_S18:bio_AS18] | – | binds | –
8 | TTTTTTTTTGCCTCGCTGCCGTCGCCA / TGGCGACGGCAGCGAGGC [dT9_S18:bio_AS18] | – | binds more weakly | binding result [1, 6]: binds
9 | TTTTTTTTTTTTGCCTCGCTGCCGTCGCCA / TGGCGACGGCAGCGAGGC [dT12_S18:bio_AS18] | – | binds more weakly | binding result [1, 6]: binds
10 | TTTTTTTTTTTTTTTGCCTCGCTGCCGTCGCCA / TGGCGACGGCAGCGAGGC [dT15_S18:bio_AS18] | – | – | binding result [1, 6]: binds
11 | TTTTTTTTTTTTTTTTTTTTTTTTTTTTTTTTTTTTTTTTGCCTCGCTGCCGTCGCCA / TGGCGACGGCAGCGAGGC [Cy3_dT40_S18:bio_AS18_Cy5] | – | – | binding result [2]: binds more weakly; binding result [3]: binds more weakly

Changes are numbered by the printed parent chain. For at least one entry, the source does not settle the construct or the ends of the probe. A weaker result is weaker than the reference pair of the same experiment. For part of these data: At least one verdict rests on a figure or table, not on a statement of the authors. Protein sequences can lack the tags named with them.
